Values from PubChem BioAssay AID1259308 (NCATS, 2017)

Test: 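Candidate targets for better recombinant protein yield in mammalian cells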 (primary screen)
Cell system: human HEK293 embryonic kidney cells stably expressing firefly luciferase (HEK-CMV-Luc2-Hygro)
Knock-down reagent: single siRNA against human genes, 0.8 pmol siRNA per well
Duration: 72 h
Detection: 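Luciferase light (ONE-Glo) measured on one replicate plate set and viability (CellTiter-Glo) on the other, scaled to a negative control siRNA, with robust z-scores and luciferase per cell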
Reading the numbers: total luciferase, z-score and total luciferase, % of control: higher = more reporter protein produced
Rule for the call: 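Active when the median/MAD z-score for overall luciferase is greater than 3; a gene was taken forward for validation with new siRNAs if at least two of its three siRNAs passed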
Meaning of the calls: active = raised luciferase; inactive = no rise
Shown is one part, drawn at random, of about 59,000 reagents tested. In the full data, about 1,510 (2.6%) were called active. 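Calls use total luciferase alone and ignore viability, so some active siRNAs may act by altering cell number.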 Reagents against one gene are numbered here. Further read-outs or replicates are left out here.

SYTL4 #1 → total luciferase, z-score: -1.26; total luciferase, % of control: 56.9; activity call: inactive
SYTL4 #2 → total luciferase, z-score: 0.0643; total luciferase, % of control: 83.2; activity call: inactive
SYTL4 #3 → total luciferase, z-score: -1.29; total luciferase, % of control: 56.3; activity call: inactive
SLC12A2 #1 → total luciferase, z-score: 0.85; total luciferase, % of control: 98.8; activity call: inactive
SLC12A2 #2 → total luciferase, z-score: -0.554; total luciferase, % of control: 70.9; activity call: inactive
SLC12A2 #3 → total luciferase, z-score: 0.321; total luciferase, % of control: 88.3; activity call: inactive
CALB2 #1 → total luciferase, z-score: 0.151; total luciferase, % of control: 84.9; activity call: inactive
CALB2 #2 → total luciferase, z-score: -0.497; total luciferase, % of control: 72; activity call: inactive
CALB2 #3 → total luciferase, z-score: 3.61; total luciferase, % of control: 154; activity call: active
RPUSD2 #1 → total luciferase, z-score: 0.305; total luciferase, % of control: 88; activity call: inactive
RPUSD2 #2 → total luciferase, z-score: 0.174; total luciferase, % of control: 85.4; activity call: inactive
RPUSD2 #3 → total luciferase, z-score: -0.861; total luciferase, % of control: 64.8; activity call: inactive

In a second layout: entries from further up.
{"gene":"SLC12A2","reagent no.":1,"total luciferase, z-score":0.85,"total luciferase, % of control":98.8,"activity call":"inactive"}
{"gene":"SLC12A2","reagent no.":2,"total luciferase, z-score":-0.554,"total luciferase, % of control":70.9,"activity call":"inactive"}
{"gene":"SLC12A2","reagent no.":3,"total luciferase, z-score":0.321,"total luciferase, % of control":88.3,"activity call":"inactive"}

Continued.
PIGG #1 → total luciferase, z-score: 0.0991; total luciferase, % of control: 83.9; activity call: inactive
PIGG #2 → total luciferase, z-score: 1.33; total luciferase, % of control: 108; activity call: inactive
PIGG #3 → total luciferase, z-score: 2.29; total luciferase, % of control: 128; activity call: inactive
MYO10 #1 → total luciferase, z-score: -0.141; total luciferase, % of control: 79.1; activity call: inactive
MYO10 #2 → total luciferase, z-score: -0.198; total luciferase, % of control: 78; activity call: inactive
MYO10 #3 → total luciferase, z-score: -0.107; total luciferase, % of control: 79.8; activity call: inactive
DDX3X #1 → total luciferase, z-score: -0.0407; total luciferase, % of control: 81.1; activity call: inactive
DDX3X #2 → total luciferase, z-score: 0.438; total luciferase, % of control: 90.6; activity call: inactive
DDX3X #3 → total luciferase, z-score: 1.93; total luciferase, % of control: 120; activity call: inactive
